Drawing on paper PMC12999171 (eLife, 2026), this text covers EC50 for one molecule.

By UniProt entry, the sequences of proteins in these tests, tags left out. Residues count along the entry.
UniProt A0A1B3D787, 27-341, stated change not applied: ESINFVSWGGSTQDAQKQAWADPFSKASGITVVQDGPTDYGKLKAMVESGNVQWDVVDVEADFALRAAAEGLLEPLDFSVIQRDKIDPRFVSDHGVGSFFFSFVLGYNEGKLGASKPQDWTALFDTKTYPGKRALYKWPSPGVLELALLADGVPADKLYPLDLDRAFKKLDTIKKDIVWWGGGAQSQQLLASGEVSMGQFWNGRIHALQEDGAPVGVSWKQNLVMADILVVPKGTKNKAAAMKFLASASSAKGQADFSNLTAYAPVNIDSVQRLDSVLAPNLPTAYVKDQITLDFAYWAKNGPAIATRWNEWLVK

One assay concerns the target iGABASnFR2n (Pseudomonas fluorescens, UniProt A0A1B3D787, F126L/F129H/N285A/S124A). Put plainly: biochemical. In kind it is binding.
Another assay addresses iGABASnFR1 (Pseudomonas fluorescens, UniProt A0A1B3D787, F126L/N285A). Put plainly: biochemical. In kind it is binding.

In general, EC50 refers to the midpoint of the concentration-response curve. Low values mean an effect from little substance, high ones a need for much substance.

`N[C@@H](Cc1ccc(O)cc1)C(=O)O` [tyrosine]: the values for the EC50 at iGABASnFR2n and at iGABASnFR1 were 9 mM and 2.51 mM, respectively.
